Assay results taken from PMC4837450.
Results are given in words; binding and its absence hold for the method and conditions named. Binding seen in cells or lysates may run through a third protein. Binding calls can cover weak binding; strength is not graded here.

By UniProt entry, the sequences of proteins in these tests, tags left out. Where a name states a change or a piece, a line headed by the entry shows the natural chain unless it says otherwise.
UniProt Q8R0W6: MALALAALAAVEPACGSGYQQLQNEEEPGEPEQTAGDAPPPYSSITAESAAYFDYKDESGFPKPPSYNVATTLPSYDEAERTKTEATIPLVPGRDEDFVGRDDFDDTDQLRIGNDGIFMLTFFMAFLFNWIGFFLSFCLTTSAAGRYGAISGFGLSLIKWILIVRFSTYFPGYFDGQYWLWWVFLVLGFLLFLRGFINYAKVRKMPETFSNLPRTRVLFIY
UniProt Q91ZP6: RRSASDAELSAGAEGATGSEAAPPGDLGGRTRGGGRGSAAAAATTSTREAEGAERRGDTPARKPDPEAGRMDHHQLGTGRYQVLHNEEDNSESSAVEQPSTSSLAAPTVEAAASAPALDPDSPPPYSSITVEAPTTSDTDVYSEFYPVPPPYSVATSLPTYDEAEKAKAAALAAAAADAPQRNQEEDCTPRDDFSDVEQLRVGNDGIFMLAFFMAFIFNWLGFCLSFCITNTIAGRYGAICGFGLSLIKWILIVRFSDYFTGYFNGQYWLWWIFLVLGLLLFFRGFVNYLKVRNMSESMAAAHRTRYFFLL
UniProt Q8C863: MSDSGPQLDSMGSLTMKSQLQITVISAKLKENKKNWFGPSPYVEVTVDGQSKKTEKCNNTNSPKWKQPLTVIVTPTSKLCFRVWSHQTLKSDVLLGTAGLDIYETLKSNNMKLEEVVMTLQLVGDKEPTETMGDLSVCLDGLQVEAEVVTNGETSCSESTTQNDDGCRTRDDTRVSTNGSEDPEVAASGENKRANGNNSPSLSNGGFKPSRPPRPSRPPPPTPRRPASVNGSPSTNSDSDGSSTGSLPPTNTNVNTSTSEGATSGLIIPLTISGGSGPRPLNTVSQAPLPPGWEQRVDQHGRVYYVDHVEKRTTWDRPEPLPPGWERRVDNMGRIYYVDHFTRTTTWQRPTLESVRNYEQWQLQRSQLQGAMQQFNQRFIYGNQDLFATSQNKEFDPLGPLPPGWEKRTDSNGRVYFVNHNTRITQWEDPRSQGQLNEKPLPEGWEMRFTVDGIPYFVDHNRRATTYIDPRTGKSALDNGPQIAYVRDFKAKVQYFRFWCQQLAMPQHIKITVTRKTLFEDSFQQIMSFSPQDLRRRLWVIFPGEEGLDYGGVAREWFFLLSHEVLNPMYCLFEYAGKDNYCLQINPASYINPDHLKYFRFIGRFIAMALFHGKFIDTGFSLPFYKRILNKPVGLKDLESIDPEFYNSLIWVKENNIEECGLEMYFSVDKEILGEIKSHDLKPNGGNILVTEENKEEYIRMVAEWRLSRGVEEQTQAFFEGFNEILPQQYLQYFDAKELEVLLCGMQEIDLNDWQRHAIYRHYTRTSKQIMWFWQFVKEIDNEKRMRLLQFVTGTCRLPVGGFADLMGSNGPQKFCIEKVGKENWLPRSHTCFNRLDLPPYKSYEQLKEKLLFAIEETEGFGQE
UniProt Q8CFI0: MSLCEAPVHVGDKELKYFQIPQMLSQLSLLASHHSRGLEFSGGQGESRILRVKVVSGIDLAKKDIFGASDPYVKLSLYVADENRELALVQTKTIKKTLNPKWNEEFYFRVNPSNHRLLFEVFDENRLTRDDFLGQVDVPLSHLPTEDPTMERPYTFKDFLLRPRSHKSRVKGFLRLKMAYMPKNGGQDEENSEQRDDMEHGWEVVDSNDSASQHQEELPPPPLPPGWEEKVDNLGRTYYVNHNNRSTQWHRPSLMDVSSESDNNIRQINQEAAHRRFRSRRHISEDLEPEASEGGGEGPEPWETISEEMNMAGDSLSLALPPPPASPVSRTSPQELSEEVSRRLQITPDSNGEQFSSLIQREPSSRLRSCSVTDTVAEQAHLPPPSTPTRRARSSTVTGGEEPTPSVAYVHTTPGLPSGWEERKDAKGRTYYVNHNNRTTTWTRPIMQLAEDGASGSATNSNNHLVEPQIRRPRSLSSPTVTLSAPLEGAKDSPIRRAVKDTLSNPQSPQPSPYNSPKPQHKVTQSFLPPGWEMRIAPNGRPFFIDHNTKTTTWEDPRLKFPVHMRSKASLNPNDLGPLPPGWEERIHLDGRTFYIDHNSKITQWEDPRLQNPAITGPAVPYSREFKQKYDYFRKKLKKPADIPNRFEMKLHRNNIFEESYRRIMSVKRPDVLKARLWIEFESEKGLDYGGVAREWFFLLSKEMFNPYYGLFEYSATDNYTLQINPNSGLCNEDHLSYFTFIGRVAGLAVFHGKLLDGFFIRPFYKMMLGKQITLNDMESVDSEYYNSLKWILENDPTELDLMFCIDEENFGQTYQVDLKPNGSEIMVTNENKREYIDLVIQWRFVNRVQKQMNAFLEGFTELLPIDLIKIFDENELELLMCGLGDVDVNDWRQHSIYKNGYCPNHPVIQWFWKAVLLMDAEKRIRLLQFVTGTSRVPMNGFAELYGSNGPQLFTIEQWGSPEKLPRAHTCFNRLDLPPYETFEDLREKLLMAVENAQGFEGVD

How the values were obtained:
[1] = target: Ndfip1 cytosolic domain GST fusion protein (UniProt Q8R0W6); experiment: pull-down; 10 ug recombinant GST-Ndfip1 or GST-Ndfip2 cytoplasmic domain incubated with lysate (1% NP40, 150 mM NaCl, 50 mM TrisHCl, precleared with GST) of WT or Ndfip1/Ndfip2 DKO CD4+ T cells restimulated 4 h with PMA/ionomycin; collected on glutathione sepharose beads; immunoblot for Itch and Nedd4-2; only the target purified
[2] = target: Ndfip2 cytosolic domain GST fusion protein (UniProt Q91ZP6); experiment: as above

Row | binding [1] | binding [2] | Substance
1 | binds | binds | Itch (from UniProt Q8C863 1-864) (enzyme)
2 | binds | binds | Nedd4-2 (from UniProt Q8CFI0 1-1004) (enzyme)
